Results are given in words; binding and its absence hold for the method and conditions named. Binding seen in cells or lysates may run through a third protein. Some entries that bind do so weakly or less than the wild type.
How the values were obtained:
[1] = molecular target: T1, Staphylococcal nuclease and Tudor domain-containing 1 (Tudor-SN) (mouse (endogenous in MASMCs)) (UniProt Q78PY7); test: co-IP; endogenous proteins in lysates of wild-type MASMCs (Fig. 5B, 6F), also of TSN^WT and TSN^smcKO MASMCs (Fig. 6H); specific antibodies or IgG at 4 °C overnight, protein A/G magnetic beads 2 h; washed 6 times in 150 mmol/L NaCl, 20 mmol/L Tris-HCl pH 7.5, 5% glycerol, 1 mmol/L MgCl2, 1 mmol/L EDTA; immunoblot
T1 sequence: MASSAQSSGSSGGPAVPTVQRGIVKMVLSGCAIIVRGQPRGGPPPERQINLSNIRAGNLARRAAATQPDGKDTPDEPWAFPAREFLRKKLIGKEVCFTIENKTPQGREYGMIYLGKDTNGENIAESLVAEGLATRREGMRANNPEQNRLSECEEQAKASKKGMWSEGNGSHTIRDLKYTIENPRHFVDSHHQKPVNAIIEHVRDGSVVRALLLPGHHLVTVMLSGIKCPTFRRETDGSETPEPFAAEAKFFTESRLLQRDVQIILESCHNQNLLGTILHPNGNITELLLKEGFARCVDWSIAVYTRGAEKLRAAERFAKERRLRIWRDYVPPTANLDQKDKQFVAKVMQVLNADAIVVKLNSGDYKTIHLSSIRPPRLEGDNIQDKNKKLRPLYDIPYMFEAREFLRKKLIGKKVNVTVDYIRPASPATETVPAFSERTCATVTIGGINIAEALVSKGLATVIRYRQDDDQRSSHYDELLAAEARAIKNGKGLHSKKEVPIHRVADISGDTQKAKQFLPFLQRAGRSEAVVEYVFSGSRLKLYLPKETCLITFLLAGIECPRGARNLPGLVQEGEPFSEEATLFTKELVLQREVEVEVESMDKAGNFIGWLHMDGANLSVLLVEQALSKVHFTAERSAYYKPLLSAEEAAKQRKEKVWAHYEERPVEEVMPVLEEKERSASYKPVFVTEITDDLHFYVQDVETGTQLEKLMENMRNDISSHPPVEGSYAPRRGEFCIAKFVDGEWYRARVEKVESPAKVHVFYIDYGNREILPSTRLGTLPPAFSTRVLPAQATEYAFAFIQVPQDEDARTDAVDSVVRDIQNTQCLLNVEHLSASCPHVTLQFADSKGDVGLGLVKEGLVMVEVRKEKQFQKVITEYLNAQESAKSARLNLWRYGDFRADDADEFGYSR

Amino acid sequences for entries named in this document (tags omitted).
UniProt O08586: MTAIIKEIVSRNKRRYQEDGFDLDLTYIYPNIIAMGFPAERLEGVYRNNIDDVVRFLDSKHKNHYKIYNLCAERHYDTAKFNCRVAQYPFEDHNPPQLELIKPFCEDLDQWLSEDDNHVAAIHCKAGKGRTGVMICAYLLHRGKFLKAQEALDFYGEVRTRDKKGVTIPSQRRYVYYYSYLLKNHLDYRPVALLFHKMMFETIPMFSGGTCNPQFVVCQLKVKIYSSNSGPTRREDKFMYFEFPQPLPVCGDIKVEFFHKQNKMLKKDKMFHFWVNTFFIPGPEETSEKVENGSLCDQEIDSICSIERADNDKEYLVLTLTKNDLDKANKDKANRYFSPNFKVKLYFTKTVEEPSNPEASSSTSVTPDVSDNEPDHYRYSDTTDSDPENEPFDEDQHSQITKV
UniProt P45481: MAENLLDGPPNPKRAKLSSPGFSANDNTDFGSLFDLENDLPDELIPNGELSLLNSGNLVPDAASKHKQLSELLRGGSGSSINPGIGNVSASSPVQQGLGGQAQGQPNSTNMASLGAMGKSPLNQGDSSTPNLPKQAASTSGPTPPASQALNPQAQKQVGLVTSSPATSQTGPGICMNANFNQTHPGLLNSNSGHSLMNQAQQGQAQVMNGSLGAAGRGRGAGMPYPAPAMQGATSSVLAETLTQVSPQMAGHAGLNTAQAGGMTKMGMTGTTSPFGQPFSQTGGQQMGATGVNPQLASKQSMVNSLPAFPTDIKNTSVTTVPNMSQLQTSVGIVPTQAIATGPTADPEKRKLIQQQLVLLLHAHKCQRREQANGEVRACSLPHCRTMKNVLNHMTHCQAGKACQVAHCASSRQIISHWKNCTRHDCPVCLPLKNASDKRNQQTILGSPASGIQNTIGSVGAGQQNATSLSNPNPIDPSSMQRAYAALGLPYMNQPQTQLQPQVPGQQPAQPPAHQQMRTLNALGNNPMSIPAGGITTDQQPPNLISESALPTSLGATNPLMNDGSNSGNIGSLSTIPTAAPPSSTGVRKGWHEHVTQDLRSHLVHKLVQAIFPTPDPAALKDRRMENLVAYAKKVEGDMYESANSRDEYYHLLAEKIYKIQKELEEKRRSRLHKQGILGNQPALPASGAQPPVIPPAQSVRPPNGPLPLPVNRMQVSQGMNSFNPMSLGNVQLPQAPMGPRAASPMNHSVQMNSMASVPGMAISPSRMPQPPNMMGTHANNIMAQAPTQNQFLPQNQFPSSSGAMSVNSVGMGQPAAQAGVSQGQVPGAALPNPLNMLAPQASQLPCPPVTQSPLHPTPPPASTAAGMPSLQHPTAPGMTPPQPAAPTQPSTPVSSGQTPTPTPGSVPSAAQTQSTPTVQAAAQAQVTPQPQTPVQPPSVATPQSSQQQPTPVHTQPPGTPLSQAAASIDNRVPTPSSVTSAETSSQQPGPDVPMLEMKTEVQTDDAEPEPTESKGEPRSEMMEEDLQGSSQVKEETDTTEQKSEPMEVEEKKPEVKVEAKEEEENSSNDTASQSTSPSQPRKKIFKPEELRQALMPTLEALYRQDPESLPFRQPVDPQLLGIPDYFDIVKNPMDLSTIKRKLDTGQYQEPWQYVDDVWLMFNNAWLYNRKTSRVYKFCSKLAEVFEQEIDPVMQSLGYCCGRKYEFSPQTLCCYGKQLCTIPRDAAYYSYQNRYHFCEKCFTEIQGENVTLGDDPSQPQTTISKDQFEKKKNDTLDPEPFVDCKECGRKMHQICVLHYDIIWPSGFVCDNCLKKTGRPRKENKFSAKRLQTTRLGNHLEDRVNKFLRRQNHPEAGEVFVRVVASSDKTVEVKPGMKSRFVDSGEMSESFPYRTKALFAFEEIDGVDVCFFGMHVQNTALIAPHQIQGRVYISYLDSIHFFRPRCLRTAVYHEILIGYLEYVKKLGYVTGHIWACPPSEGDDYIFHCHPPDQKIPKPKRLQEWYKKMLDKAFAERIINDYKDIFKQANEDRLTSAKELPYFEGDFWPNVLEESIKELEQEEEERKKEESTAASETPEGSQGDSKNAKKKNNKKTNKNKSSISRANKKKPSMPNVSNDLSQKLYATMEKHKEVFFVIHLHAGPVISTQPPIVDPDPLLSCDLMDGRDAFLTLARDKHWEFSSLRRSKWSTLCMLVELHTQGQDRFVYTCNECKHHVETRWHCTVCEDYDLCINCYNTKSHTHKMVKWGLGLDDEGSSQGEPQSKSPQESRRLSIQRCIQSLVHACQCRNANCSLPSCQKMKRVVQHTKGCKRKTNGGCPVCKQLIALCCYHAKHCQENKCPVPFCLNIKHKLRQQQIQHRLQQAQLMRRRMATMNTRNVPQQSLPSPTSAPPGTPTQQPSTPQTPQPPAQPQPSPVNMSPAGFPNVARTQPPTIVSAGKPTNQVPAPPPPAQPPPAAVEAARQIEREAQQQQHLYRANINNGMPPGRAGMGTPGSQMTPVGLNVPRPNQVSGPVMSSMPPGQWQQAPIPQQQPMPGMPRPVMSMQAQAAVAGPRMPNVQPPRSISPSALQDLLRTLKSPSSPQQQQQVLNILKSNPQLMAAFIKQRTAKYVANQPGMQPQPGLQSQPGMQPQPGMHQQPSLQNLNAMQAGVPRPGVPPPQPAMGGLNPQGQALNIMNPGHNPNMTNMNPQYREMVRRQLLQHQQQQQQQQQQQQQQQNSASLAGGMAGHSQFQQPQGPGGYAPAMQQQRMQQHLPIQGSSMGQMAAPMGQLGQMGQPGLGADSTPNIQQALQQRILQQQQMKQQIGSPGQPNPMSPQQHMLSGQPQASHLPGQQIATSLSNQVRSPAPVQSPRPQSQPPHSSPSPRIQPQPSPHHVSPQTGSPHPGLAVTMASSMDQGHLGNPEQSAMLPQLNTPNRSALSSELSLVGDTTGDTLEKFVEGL
UniProt P46935: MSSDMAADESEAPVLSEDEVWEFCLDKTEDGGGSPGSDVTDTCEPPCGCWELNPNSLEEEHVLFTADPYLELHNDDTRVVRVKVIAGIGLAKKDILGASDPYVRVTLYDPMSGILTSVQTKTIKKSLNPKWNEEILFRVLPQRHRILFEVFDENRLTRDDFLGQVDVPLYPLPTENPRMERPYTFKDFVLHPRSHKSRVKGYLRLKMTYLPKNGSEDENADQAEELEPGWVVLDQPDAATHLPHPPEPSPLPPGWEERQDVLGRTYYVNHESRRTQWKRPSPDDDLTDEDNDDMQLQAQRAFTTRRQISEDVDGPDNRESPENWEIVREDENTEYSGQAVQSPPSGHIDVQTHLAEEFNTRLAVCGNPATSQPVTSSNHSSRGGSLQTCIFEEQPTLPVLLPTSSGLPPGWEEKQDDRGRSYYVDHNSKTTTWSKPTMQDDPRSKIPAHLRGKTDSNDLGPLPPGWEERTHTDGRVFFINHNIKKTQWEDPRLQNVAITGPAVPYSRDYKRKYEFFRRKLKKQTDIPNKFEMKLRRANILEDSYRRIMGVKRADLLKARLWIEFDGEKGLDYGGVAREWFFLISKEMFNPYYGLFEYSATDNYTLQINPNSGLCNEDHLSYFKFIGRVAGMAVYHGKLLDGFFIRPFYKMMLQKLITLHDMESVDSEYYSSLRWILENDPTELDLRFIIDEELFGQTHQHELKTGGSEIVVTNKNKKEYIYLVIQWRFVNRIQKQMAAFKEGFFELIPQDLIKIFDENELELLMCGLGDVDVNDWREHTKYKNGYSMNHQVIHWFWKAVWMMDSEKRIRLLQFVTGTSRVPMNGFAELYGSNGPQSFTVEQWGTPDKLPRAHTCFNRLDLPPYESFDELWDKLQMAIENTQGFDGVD
UniProt Q9DBH0: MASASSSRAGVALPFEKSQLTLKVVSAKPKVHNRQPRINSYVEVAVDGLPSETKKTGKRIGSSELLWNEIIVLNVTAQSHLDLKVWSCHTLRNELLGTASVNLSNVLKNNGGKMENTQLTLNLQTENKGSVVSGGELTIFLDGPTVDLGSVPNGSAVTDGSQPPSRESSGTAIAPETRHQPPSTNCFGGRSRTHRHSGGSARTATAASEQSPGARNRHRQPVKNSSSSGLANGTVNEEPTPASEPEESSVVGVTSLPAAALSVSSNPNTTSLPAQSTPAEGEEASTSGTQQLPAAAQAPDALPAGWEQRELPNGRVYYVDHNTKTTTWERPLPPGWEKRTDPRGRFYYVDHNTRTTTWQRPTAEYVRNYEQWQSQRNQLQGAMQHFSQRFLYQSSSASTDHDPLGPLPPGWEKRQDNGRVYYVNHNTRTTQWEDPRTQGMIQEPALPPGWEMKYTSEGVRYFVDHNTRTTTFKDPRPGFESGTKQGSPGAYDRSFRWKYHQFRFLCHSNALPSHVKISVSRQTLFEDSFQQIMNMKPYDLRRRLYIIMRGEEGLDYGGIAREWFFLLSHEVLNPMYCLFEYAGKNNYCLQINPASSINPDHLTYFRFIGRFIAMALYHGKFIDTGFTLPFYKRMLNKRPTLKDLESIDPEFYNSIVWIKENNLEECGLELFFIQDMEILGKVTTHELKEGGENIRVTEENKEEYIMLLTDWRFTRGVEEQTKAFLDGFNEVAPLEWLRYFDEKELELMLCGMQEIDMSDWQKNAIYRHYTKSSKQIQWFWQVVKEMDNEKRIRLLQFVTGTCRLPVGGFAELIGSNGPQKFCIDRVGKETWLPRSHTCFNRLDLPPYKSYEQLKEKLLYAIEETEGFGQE

[2] = molecular target: PTEN (mouse (endogenous in MASMCs)) (UniProt O08586); test: as above

binding [1] | binding [2] | Substance
binds | – | CREBBP (from UniProt P45481 1-2441)
binds | – | PTEN (from UniProt O08586 1-403)
binds | binds | NEDD4-1 (from UniProt P46935 1-887) (enzyme)
binds | binds | WWP2 (from UniProt Q9DBH0 1-870) (enzyme)
